Data reported in PubChem BioAssay AID2685 (National Center for Advancing Translational Sciences (NCATS), 2010).
The list shows a part of the results. Further columns of the screen follow, without active or inactive calls. Most of these compounds were active or inconclusive in the main read-out, so they are no random draw. The note in brackets gives the kind of curve behind each potency; many fits are weak.

Assay: qHTS Assay for Lipid Storage Modulators in Drosophila S3 Cells;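 as to cell number change: cells counted by Cell Tracker Red CMTPX staining in the red channel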
Conditions: BODIPY lipid droplet fluorescence, 18-24 h; for cell number change: measured here: cell count max response, cells fed with added oleic acid
Method in brief: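 Laser-scanning cytometry quantifies lipid droplet accumulation (500–530 nm total intensity; droplet/cell object ratio) in oleic acid-fed (400 uM added) Drosophila S3 cells treated with a concentration series. 20 uM Triacsin C defined 100% inhibition.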

[1] = measured here: lipid fluorescence (Fed channel) AC50, cells fed with added oleic acid
[2] = measured here: cell number channel AC50, cells fed with added oleic acid

SMILES	cell number change	AC50 [1]	AC50 [2]
CC1=CSC2=NC(=O)/C(=C/c3cccc(OC(=O)c4ccco4)c3)C(=N)N12	17%	1.03 µM [rising, partial curve]	–
Nc1cc(Nc2ccccc2)c2nonc2c1[N+](=O)[O-]	-82.6%	2.06 µM [falling, full curve]	2.31 µM [falling, full curve]
COc1cc(NC(=O)c2cc([N+](=O)[O-])ccc2N2CCOCC2)ccc1NC(=O)c1ccco1	-51.9%	–	13 µM [falling, partial curve, poor fit]
CCOC(=O)c1cc2c(=O)n3ccccc3nc2n(CC2CCCO2)c1=NC(=O)/C=C/c1ccccc1 (stereo unspecified)	–	2.59 µM [rising, partial curve, poor fit]	–
COC(=O)c1ccc(-c2ccc([C@H]3[C@H]4C=CC[C@@H](C)[C@@H]4C(=O)N3Cc3ccccc3)c(F)c2)cc1	-16.5%	–	0.13 µM [falling, full curve, poor fit]
CC(C)CSC1=NSC2=NC(=O)/C(=C\c3coc4ccccc4c3=O)C(=N)N12	-0.388%	29.1 µM [falling, single point]	–
CCn1c(SCC(=O)N(C(C)C)C(C)C)nnc1-c1cc2ccccc2cc1O	-31%	29.1 µM [falling, partial curve]	–
Cn1c(=O)c2c(nc(SCC(=O)O)n2Cc2cccc(C(F)(F)F)c2)n(C)c1=O	–	–	0.58 µM [falling, single point]
Cc1csc(SCC(=O)Nc2sccc2C(N)=O)n1	43%	0.461 µM [rising, partial curve, poor fit]	8.2 µM [rising, partial curve]
O=C(Nc1ccc2c(c1)OCCO2)c1ccc(CN2CCOCC2)cc1	–	–	0.103 µM [falling, full curve, poor fit]
CCOC(=O)c1cnc(SCc2nc(N)nc(Nc3ccccc3)n2)nc1N	3.28%	2.31 µM [rising, full curve]	–
CCOC(=O)c1sc(NC(=O)CSc2ccccn2)c(C#N)c1C	-52.8%	29.1 µM [rising, single point]	14.6 µM [falling, single point]
CCC(C)N(CC(=O)NCc1ccc(OC)cc1)C(=O)c1csnn1 (stereo unspecified)	1.63%	0.259 µM [falling, full curve, poor fit]	–
O=C(O)c1c[nH]c(=O)c2ccccc12	-18.2%	–	–
COc1ccc(C(C)=O)cc1COC(=O)c1ccc2c(c1)OCO2	-15.4%	0.326 µM [rising, full curve, poor fit]	–
Cc1ccc(CCNC(=O)C2CCCN(C(=O)N(C)C)C2)cc1 (stereo unspecified)	15.8%	0.00517 µM [rising, full curve, poor fit]	–
COc1ccc(S(=O)(=O)N/N=C(/C)c2cccc(NC(=O)c3ccccc3Cl)c2)cc1	0.594%	32.6 µM [falling, partial curve, poor fit]	0.58 µM [rising, single point]
COc1cc2ccccc2cc1C(=O)N(CCN(C)C)c1nc2c(OC)ccc(OC)c2s1	7.03%	20.6 µM [falling, single point]	–
CCOC(=O)C1=C(C)NC(=O)NC1c1ccc(OCC(=O)OC)c(OC)c1 (stereo unspecified)	13.7%	6.51 µM [falling, single point]	–

SMILES	cell number change	AC50 [1]	AC50 [2]
OCCn1c(SCCOc2ccccc2)nc2ccccc21	–	0.58 µM [falling, single point]	–
CCCCc1ccc(N2C(=O)[C@@H]3C(CC(N)=O)NC4(C(=O)Nc5ccc(F)cc54)[C@@H]3C2=O)cc1 (stereo partly specified)	-22.6%	–	–
Cn1c(=NC(=O)c2cnccn2)sc2ccccc21	-11.7%	9.2 µM [rising, single point]	–
Cc1ccc(NC2=NC(c3ccc(C)cc3)n3c(nc(C)cc3=O)N2)cc1 (stereo unspecified)	1.82%	29.1 µM [rising, single point]	–
CCCCc1nc2ccc(S(=O)(=O)O)cc2[nH]1	-22.8%	29.1 µM [falling, single point]	–
Cn1cc(SCC(=O)NCc2ccc3c(c2)OCO3)c2ccccc21	62.5%	2.06 µM [falling, partial curve]	16.4 µM [rising, partial curve, poor fit]
O=C(O)c1cccc(S(=O)(=O)N2CCC(n3nnc4cc(C(F)(F)F)ccc43)CC2)c1	41%	–	4.11 µM [rising, partial curve]
CC(=NCC1CCNCC1)C1=C(O)CC(C)(C)CC1=O	-206%	0.00731 µM [falling, full curve, poor fit]	29.1 µM [falling, partial curve]
O=C(O)CCc1ccc(-c2ccccc2)n1-c1ccc(C(=O)O)cc1	-12.4%	–	–
COc1ccc(C2SCC(=O)N2c2nnc(C34CC5CC(CC(C5)C3)C4)s2)cc1 (stereo unspecified)	13.1%	6.51 µM [rising, single point]	–
CSc1nsc(SC)c1NC(=O)N1CCCCC1	-47.7%	1.03 µM [falling, full curve]	2.59 µM [falling, full curve, poor fit]
O=C(CSc1nnc(-c2cccs2)o1)NCC1CN(Cc2ccccc2)CCO1 (stereo unspecified)	-3.05%	11.6 µM [rising, partial curve]	–
Cc1ccc(OCCCC(=O)N(C)CC(=O)Nc2ccccc2Cl)cc1	–	0.116 µM [falling, full curve, poor fit]	–
O=C(Cc1ccc(Br)cc1)NC1CCCCC1	–	25.9 µM [falling, partial curve, poor fit]	–
COc1cc(OC)cc(C(=O)NNC(=O)CN2C(=O)NC3(CCCC3)C2=O)c1	10.7%	13 µM [rising, partial curve, poor fit]	–
Cc1cc(N=Nc2ccc3ccccc3c2)ccc1O	-24.6%	–	–
COc1ccc(N2CCN(CCC(O)c3ccc4ccccc4c3)CC2)cc1 (stereo unspecified)	1.18%	6.51 µM [falling, single point]	–
CC1CCCc2sc3nc(N4CCN(CCO)CC4)n4ncnc4c3c21 (stereo unspecified)	-11.2%	0.0651 µM [falling, full curve, poor fit]	–

Random excerpt: 2 compounds from above.
SMILES	cell number change	AC50 [1]	AC50 [2]
CSc1nsc(SC)c1NC(=O)N1CCCCC1	-47.7%	1.03 µM [falling, full curve]	2.59 µM [falling, full curve, poor fit]
Cc1ccc(NC2=NC(c3ccc(C)cc3)n3c(nc(C)cc3=O)N2)cc1 (stereo unspecified)	1.82%	29.1 µM [rising, single point]	–
